At least one peptide structure holds a part that was inferred or is arguable (an end, a ring closure or a residue). Square brackets hold non-standard residues; d marks the D form. Peptide text beside a SMILES is read from it. pS = N[C@@H](COP(=O)(O)O)C(=O)O
Key:
IKK signalsome [1] = biological target: T1, IKK signalsome (Homo sapiens, UniProt O14920+O15111); assay: Inhibition of immunopurified IKK signalsome activity (32P incorporation into GST-IκBα(1-54)); format: biochemical; conditions: GST-IκBα(1-54) 0.56 μM, ATP 3 μM; one hour at room temperature
T1 construct: endogenous in cells; host or cells: HeLa / HeLa S3 cells stimulated with TNFα; anti-MKP-1 immunoprecipitate
Protocol: FIG. 9B is a graph illustrating the inhibition of phosphorylation of GST-IκBα (1-54) by IκBα(21-41) peptides. […] This assay only detects precipitated ^32P-labeled proteins, not ^32P-labeled peptides. Addition of the singly- or non-phosphorylated IκBα(21-41) peptides results in less phosphorylation of GST-IκBα (1-54) and apparent inhibition.
Inhibition of immunopurified IKK signalsome activity was measured by ^32P incorporation into GST-IκBα(1-54) in a discontinuous assay using the reaction conditions described above. The concentrations of GST-IκBα(1-54) and ATP used in the inhibition studies were 0.56 μM and 3 μM, respectively. Enzymatic reactions (32 μL) were carried out in wells of a 96 well assay plate for one hour at room temperature and terminated with the addition of trichloroacetic acid (TCA) (150 μL/well of 12.5% w/v). The subsequent 20 minute incubation with TCA precipitated the proteins but not peptides from solution. […] Scintillation fluid (0.50 mL, MicroScint, Packard) was added to each well and the plate was analyzed for ^32P using a Packard TopCount scintillation counter. […] The inhibition constant of the P32, 36 peptide was determined by Dixon analysis (Dixon and Webb, In Enzymes (Academic Press: New York, ed. 3, 1979), pp. 350-51.

Sequences of proteins named here, by UniProt entry; tags and fusion partners are left off. A change or cut given only in a name is not applied to a line headed by its entry.
UniProt O14920: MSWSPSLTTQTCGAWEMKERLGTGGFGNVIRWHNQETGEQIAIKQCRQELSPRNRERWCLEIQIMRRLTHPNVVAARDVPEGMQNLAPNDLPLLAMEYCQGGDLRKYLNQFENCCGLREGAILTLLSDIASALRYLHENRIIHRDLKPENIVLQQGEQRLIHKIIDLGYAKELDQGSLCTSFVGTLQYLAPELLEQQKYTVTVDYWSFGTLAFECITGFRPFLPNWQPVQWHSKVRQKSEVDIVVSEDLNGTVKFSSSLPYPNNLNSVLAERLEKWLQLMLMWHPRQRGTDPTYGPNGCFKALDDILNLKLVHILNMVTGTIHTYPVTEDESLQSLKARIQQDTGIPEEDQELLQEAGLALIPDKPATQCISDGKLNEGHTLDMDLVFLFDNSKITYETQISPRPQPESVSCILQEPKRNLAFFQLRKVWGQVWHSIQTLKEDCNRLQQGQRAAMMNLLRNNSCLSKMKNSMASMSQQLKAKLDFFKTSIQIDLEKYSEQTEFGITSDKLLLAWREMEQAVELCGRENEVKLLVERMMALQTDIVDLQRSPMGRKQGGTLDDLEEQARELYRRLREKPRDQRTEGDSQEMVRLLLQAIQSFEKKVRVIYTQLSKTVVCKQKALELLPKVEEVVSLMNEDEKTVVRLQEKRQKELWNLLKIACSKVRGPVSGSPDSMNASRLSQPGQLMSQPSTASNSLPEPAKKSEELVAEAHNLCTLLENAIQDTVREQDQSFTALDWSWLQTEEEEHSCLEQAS
UniProt O15111: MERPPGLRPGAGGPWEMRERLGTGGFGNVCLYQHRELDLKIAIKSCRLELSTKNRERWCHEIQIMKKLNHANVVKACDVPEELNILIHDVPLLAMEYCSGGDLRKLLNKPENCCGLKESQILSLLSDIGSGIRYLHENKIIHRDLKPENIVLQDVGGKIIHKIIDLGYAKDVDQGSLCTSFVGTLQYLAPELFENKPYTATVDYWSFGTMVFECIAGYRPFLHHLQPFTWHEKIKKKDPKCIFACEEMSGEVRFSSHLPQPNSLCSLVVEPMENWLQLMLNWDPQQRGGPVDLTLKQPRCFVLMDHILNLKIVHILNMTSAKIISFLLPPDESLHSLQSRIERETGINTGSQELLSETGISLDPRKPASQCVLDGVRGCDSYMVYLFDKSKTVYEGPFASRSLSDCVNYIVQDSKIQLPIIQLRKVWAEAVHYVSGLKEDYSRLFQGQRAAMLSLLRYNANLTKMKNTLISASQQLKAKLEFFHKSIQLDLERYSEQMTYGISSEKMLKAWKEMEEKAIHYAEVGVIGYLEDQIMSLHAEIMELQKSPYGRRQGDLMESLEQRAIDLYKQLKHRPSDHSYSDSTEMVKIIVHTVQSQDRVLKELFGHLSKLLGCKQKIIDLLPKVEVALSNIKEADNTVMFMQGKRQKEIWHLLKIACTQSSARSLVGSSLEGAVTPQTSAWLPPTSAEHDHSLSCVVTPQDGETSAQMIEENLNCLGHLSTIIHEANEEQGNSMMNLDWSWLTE

IKK signalsome [2] = biological target: T1, IKK signalsome; assay: Phosphorylation of synthetic peptides by the IKK signalsome (immunokinase assay); format: biochemical; conditions: peptide 100 μM, γ-[32P]-ATP, one hour at room temperature
Protocol: FIG. 9A is an autoradiogram depicting the results of an immunokinase assay in which peptides are phosphorylated by the IKK signalsome. In the top panel, IκBα(21-41) peptides that were unphosphorylated or chemically phosphorylated on either Ser-32 or Ser-36 were incubated with the IKK signalsome in the presence of γ-[^32P]-ATP.
Phosphorylation of these peptides (100 μM) was performed using a kinase reaction as described above. Reactions were for one hour at room temperature and were terminated by the addition of SDS-PAGE loading buffer. SDS-PAGE with a 16% Tris/tricine gel (Novex, San Diego, Calif.) or a 4-20% Tris/glycine gel (Novex, San Diego, Calif.) was used to characterize the reaction products. Gels were washed, dried in vacuo, and exposed to autoradiographic film.

SMILES: CSCC[C@H](NC(=O)[C@H](COP(=O)(O)O)NC(=O)[C@H](CC(=O)O)NC(=O)[C@H](CC(C)C)NC(=O)CNC(=O)[C@H](COP(=O)(O)O)NC(=O)[C@H](CC(=O)O)NC(=O)[C@H](Cc1c[nH]cn1)NC(=O)[C@H](CCCNC(=N)N)NC(=O)[C@H](CC(=O)O)NC(=O)[C@H](CC(=O)O)NC(=O)[C@H](CC(C)C)NC(=O)[C@H](CC(C)C)NC(=O)[C@H](CCCNC(=N)N)NC(=O)[C@H](CCC(=O)O)NC(=O)[C@H](CCCCN)NC(=O)[C@H](CCCCN)NC(=O)[C@@H](N)CS)C(=O)N[C@@H](CCCCN)C(=O)N[C@@H](CC(=O)O)C(=O)N[C@@H](CCC(=O)O)C(=O)N[C@@H](CCC(=O)O)C(=O)O [IκBα(21-41) peptide P32,36] (H-CKKERLLDDRHD[pS]GLD[pS]MKDEE-OH)
- inhibition of IKK signalsome kinase (phosphorylation of GST-IκBα (1-54)) (IKK signalsome [1]): strongly inhibited
- phosphorylation of peptide by IKK signalsome (IKK signalsome [2]): not phosphorylated
- phosphorylation of peptide by IKK signalsome (IKK signalsome [2]; listed as peptide with phosphoserines at both positions): not phosphorylated at all
